Where a name gives a salt, the structure may show the parent alone. The list shows a part of the results. Cut-off read from the data, not from the text of the source: active = 2.5 or more and inactive = the rest. Repeats in this data set agree poorly, so a single value says little.

The test system of the assay is Lgr5 (MarsCy1-Lgr5-EGFP, U2OS). Description: cell-surface Lgr5 expression (SCi1 fluorescence, background-subtracted) relative to WT control (fold of WT control); higher = more Lgr5 at the plasma membrane. To be noted: U2OS MarsCy1-Lgr5-EGFP stable; treatment time: overnight; library: Prestwick; 20 µM.
In the case of `CC(=O)Oc1ccccc1C(=O)Oc1ccccc1C(=O)O` [Acetylsalicylsalicylic acid], the “cell-surface Lgr5 expression” value was inactive: 1.11. The same measure for `CNC[C@H](O)[C@@H](O)[C@H](O)[C@H](O)CO` [Meglumine]: active: 4.6; for `Nc1ccc(S(=O)(=O)Nc2cnc3ccccc3n2)cc1` [Sulfaquinoxaline sodium salt]: inactive: 1.51; for `COc1ccc(C[C@H](N)C(=O)N[C@H]2[C@@H](O)[C@H](n3cnc4c(N(C)C)ncnc43)O[C@@H]2CO)cc1` [Puromycin dihydrochloride]: inactive: 0.458.

On to `Cc1ccnc(NS(=O)(=O)c2ccc(N)cc2)n1` [Sulfamerazine], for which the “cell-surface Lgr5 expression” value was inactive: 1.63.

As to `C[C@H]1NC(=O)NC1=O` [Methylhydantoin-5-(D)], the “cell-surface Lgr5 expression” value is inactive: 1.77. The same measure for `N=C(N)NCc1cccc(I)c1` [Iobenguane sulfate]: inactive: 1.78; for `CC(=O)O[C@H]1C[C@@]2(C)[C@@H](C[C@@H](O)[C@H]3[C@@]4(C)CC[C@@H](O)[C@@H](C)[C@@H]4CC[C@@]32C)/C1=C(\CCC=C(C)C)C(=O)O` [Fusidic acid sodium salt]: inactive: 0.614. Take `CN(C)CCn1nnnc1SCC1=C(C(=O)O)N2C(=O)[C@@H](NC(=O)Cc3csc(N)n3)[C@H]2SC1` [Cefotiam hydrochloride]: the “cell-surface Lgr5 expression” value was inactive: 2.34. Under `CC(C)=CCC/C(C)=C/CC/C(C)=C/CC/C(C)=C/CC/C(C)=C/CC/C(C)=C/CC1=C(C)C(=O)c2ccccc2C1=O` [Vitamin K2] stands inactive: 1.04. Take `CCN(CC)CCOC(=O)c1ccc(N)cc1` [Procaine hydrochloride]: the “cell-surface Lgr5 expression” value was inactive: 1.36. The same measure for `CC[C@H](C)C(=O)O[C@H]1C[C@@H](C)C=C2C=C[C@H](C)[C@H](CC[C@@H]3C[C@@H](O)CC(=O)O3)[C@H]21` [Lovastatin]: inactive: 1.59. Under `Cc1c(C)c2c(c(C)c1O)CCC(C)(C(=O)O)O2` (stereo unspecified) [Trolox] stands inactive: 1.7. The same measure for `Cc1c(O)c(=O)n(-c2ccccc2)n1C` [Antipyrine, 4-hydroxy]: inactive: 1.12.

On to `C[C@H]1[C@H](C)CC[C@]2(C(=O)O[C@@H]3O[C@H](CO[C@@H]4O[C@H](CO)[C@@H](O[C@@H]5O[C@H](C)[C@H](O)[C@@H](O)[C@H]5O)[C@H](O)[C@H]4O)[C@@H](O)[C@H](O)[C@H]3O)CC[C@]3(C)C(=CC[C@@H]4[C@@]5(C)C[C@@H](O)[C@H](O)[C@@](C)(CO)[C@@H]5CC[C@]43C)[C@H]12` [Asiaticoside], for which the “cell-surface Lgr5 expression” value is inactive: 0.837. Under `CC(C)OC(=O)C(C)(C)Oc1ccc(C(=O)c2ccc(Cl)cc2)cc1` [Fenofibrate] stands inactive: 1.38.
